Data as given in PubChem BioAssay AID504784 (Drosophila RNAi Screening Center, 2011).
The deposit covers about 17,000 reagents; shown is a random part of those with a known target gene and a result. 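Each column is one replicate's B-score; the combined score over replicates was not deposited, so single values may mislead.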 Names joined by + are all predicted targets of the reagent. Further read-outs or replicates are left out here.

- Aim: 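Genome-wide knock-down for genes giving too much or too little stored lipid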 (primary screen)
- Cells: Drosophila Kc167 embryonic cells
- Knock-down reagent: long dsRNA against Drosophila genes, about 250 ng dsRNA per well
- Timing: 4 days
- Conditions: cells fed 400 µM oleic acid bound to BSA
- Read-out: 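Microscope images give a droplet-to-nucleus area ratio, taken as log and converted to a screen-wide B-score; higher values mean greater lipid storage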
- Scale: droplet/nuclear area B-score: higher = more stored lipid (overstorage)

droplet/nuclear area B-score, replicate 1, by gene and reagent
CG5290: DRSC10501 0.442
CG7071 + Muted: DRSC16189 1.69
Uvrag: DRSC02932 1.85
Herp: DRSC02394 0.441
CG31248: DRSC22722 0.53
CG15570: DRSC18058 0.594
ppk: DRSC03595 1.75
CG12546 + CG14452: DRSC11709 -1.74
CG14331: DRSC14810 -0.396
Hey: DRSC07440 -0.0449; DRSC23030 1.16
phyl: DRSC07663 1.66
neb: DRSC03577 0.691
Nse4: DRSC02239 0.395
CG6236: DRSC15999 -0.873
Tsp42Ea: DRSC04982 0.517; DRSC06792 -0.281
lok: DRSC03567 0.0979
CG34426: DRSC09977 -0.959
CG9331: DRSC03206 -2.08
ND-ASHI: DRSC18291 1.06
beta-Man: DRSC12208 0.636; DRSC12209 -0.283
EMC7: DRSC07162 -1.45
UBL3: DRSC20298 -0.83; DRSC23292 0.133
CG34178 + CG34177: DRSC00351 1.06
tut: DRSC08909 -0.835
da: DRSC03517 2.78
LeuRS-m: DRSC08595 0.247
NPFR: DRSC12173 0.642
CG9173: DRSC08635 0.853
CG32668: DRSC18879 0.802
Or82a: DRSC11996 -2.83
Ip259: DRSC03352 -3.11
imd: DRSC05928 0.528
alpha-Est6: DRSC12618 -1.44
CG5783: DRSC02894 -1.56
CG4563: DRSC04474 -0.349
Gclc: DRSC18666 0.242
CG15814: DRSC19730 0.253
Iyd: DRSC10614 -0.471; DRSC10615 2.04
CG33172: DRSC21793 -1.14
CG15404: DRSC00418 -1.56
CG4645: DRSC19907 -0.0254
TwdlN: DRSC15813 1.34
CG34165: DRSC01970 0.91
CG4465: DRSC15584 0.55
CG31125: DRSC13684 -1.18
aub: DRSC03486 1.37
CG10866: DRSC08171 -0.707
l(2)37Cd: DRSC02069 1.84

Ordered by “droplet/nuclear area B-score, replicate 1” (low to high): some entries from above
gene	DRSC id	droplet/nuclear area B-score, replicate 1
CG9331	DRSC03206	-2.08
EMC7	DRSC07162	-1.45
CG34426	DRSC09977	-0.959
CG6236	DRSC15999	-0.873
UBL3	DRSC20298	-0.83
beta-Man	DRSC12209	-0.283
Tsp42Ea	DRSC06792	-0.281
lok	DRSC03567	0.0979
Nse4	DRSC02239	0.395
Tsp42Ea	DRSC04982	0.517
beta-Man	DRSC12208	0.636
neb	DRSC03577	0.691
ND-ASHI	DRSC18291	1.06
phyl	DRSC07663	1.66

Next entries follow.
droplet/nuclear area B-score, replicate 1, by gene and reagent
Ca-alpha1T: DRSC17842 -0.823; DRSC18103 0.101; DRSC18356 -1.3; DRSC18357 0.0112; DRSC21430 0.125
Cfp1: DRSC18128 -1.29
CG14931: DRSC02413 -3.73
mtTFB1 + Ccdc56: DRSC10809 -1.32
Dh44-R1: DRSC07172 -0.0318
GlcAT-S: DRSC02731 -1.15
side-VIII: DRSC05880 -0.00246; DRSC05883 -0.659; DRSC06157 1.22; DRSC23187 -0.006
CG6178: DRSC15984 -0.756
Mlc2: DRSC16741 0.0935
CheB38c: DRSC02389 -0.402
Indy-2 + CG33934: DRSC15685 -0.0176; DRSC15686 -0.00602
Mpc1: DRSC14770 -4.03
B52: DRSC14121 -3.02
CG8155: DRSC07084 0.199; DRSC21543 -0.353
for: DRSC00195 -0.504; DRSC00818 0.263
dan: DRSC14406 -0.982
CG2162: DRSC08557 1.22
Jwa: DRSC02048 1.11
CG1360: DRSC06406 -0.327
SppL: DRSC15228 -0.481
CanA-14F: DRSC20211 -0.7; DRSC23296 -1.35
CG3280 (retired record): DRSC10356 0.0105
P5CDh1: DRSC11801 -0.521
brwl: DRSC01080 -0.742; DRSC02729 -0.501
AlaRS: DRSC01851 0.432
CG15136: DRSC02436 0.234
scrt: DRSC08736 1.87; DRSC23001 -0.267
CG5043: DRSC02805 -1.15
CG14982: DRSC08440 -0.736; DRSC23022 -0.0646
CG14958: DRSC08417 0.158
Loxl2: DRSC04469 -0.00509
CG42685: DRSC01971 -0.954
CG31457: DRSC22935 -0.271
Or67c: DRSC11242 0.0465
Dpy-30L2: DRSC08205 1.07
Myo95E: DRSC15821 7.33
CG12289: DRSC09874 0.734
Pop5: DRSC10074 -0.0509
